The whole screen tested about 390,000 compounds, of which about 4,000 (1%) were called active. This list was built around the results that the source calls inconclusive (neither active nor inactive); the mix of calls is not that of the screen. Calls follow the shape of the dose curve; as a rule, active = well fitted inhibition curve with a large enough effect; inconclusive = small, poorly fitted or top-dose-only effect, or another doubt; inactive = no such curve, though single readings can be large or run the other way. A potency beside an inconclusive call is a rough fit, not a confirmed value.
What follows are molecules tested against DNA polymerase iota (Homo sapiens) (UniProt Q9UNA4) (assay: qHTS for Inhibitors of Polymerase Iota). Conditions: Pol iota fluorescent replication assay, 10 min; series mostly up to 115 µM.
In short: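 Pol iota at 10 nM preincubated 15 min with compounds at room temperature; reaction started with fluorescent substrate, 50 nM final. Fluorescence read kinetically at 0 and 10 min; buffer-only wells as negative control.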
Potency is read from the fitted curve at half-maximal effect.

Chains of the proteins cited; added tags and fusions are not shown. Lines headed by an entry give the natural chain unless they say otherwise; changes in a name come on top.
UniProt Q9UNA4: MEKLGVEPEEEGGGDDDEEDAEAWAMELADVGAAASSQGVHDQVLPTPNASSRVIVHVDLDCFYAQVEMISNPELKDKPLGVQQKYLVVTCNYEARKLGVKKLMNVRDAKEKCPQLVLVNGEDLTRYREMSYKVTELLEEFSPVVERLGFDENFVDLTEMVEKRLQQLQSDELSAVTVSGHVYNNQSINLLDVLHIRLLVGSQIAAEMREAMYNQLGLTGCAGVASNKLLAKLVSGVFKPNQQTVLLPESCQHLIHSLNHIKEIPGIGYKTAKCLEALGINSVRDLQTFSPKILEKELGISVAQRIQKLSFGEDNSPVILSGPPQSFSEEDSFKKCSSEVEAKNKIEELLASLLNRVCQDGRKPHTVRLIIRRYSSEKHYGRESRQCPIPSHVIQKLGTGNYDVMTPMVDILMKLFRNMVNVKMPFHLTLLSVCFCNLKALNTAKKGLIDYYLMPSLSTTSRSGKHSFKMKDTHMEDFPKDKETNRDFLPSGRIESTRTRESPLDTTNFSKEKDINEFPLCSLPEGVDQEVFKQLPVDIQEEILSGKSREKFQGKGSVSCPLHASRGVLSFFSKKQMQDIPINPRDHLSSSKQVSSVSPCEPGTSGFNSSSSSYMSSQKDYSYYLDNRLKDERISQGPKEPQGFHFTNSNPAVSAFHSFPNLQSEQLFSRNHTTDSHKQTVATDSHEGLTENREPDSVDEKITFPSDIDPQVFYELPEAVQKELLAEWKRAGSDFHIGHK

Potency, inactive:
CCOC(=O)c1sc2ncn(CC(=O)Nc3cc(C)cc(C)c3)c(=O)c2c1C
Cc1ccnc(NS(=O)(=O)c2ccc(NC(=O)c3cc(-c4ccccc4)nc4ccccc34)cc2)n1
Cc1cccc(C(=O)Nc2ccc3nc(SCC(=O)N4CCc5ccccc54)sc3c2)c1
CCOc1ccc(CNC(=S)N/N=C/c2ccc(OC)c(OC)c2)cc1
CC(CNC(=O)c1ccc2nc(CCc3ccccc3)oc2c1)c1ccccc1 (configuration not stated)
CCC(=O)C1=C(c2cccc([N+](=O)[O-])c2)N(C(=O)CC)n2c(nnc2C2CCCCC2)S1
CN1CCN(NC(=O)CC(C)(C)C)CC1
Cc1cccc(-c2nc3c4ccccc4n(CC(=O)Nc4cccc(F)c4)c(=O)n3n2)c1
CC(C)(C)n1ncc2c(=O)n(Cc3cccc(F)c3)cnc21
Cc1cc(C)cc(NC(=O)Cn2c(=O)n(CCC(C)C)c(=O)c3cccnc32)c1
CCOC(=O)C1CCN(C2=C(NS(=O)(=O)c3ccc(Cl)cc3)C(=O)c3ccccc3C2=O)CC1
CCN1CCN(c2cc(C)c3cc(NC(=O)c4cc(OC)c(OC)c(OC)c4)ccc3n2)CC1
Cc1cc(/C=N/NC(N)=S)c(C)n1-c1cccc(Cl)c1

Compounds from the list above that contain four or more nitrogen atoms (7):
Potency, inactive:
Cc1ccnc(NS(=O)(=O)c2ccc(NC(=O)c3cc(-c4ccccc4)nc4ccccc34)cc2)n1
CCC(=O)C1=C(c2cccc([N+](=O)[O-])c2)N(C(=O)CC)n2c(nnc2C2CCCCC2)S1
Cc1cccc(-c2nc3c4ccccc4n(CC(=O)Nc4cccc(F)c4)c(=O)n3n2)c1
CC(C)(C)n1ncc2c(=O)n(Cc3cccc(F)c3)cnc21
Cc1cc(C)cc(NC(=O)Cn2c(=O)n(CCC(C)C)c(=O)c3cccnc32)c1
CCN1CCN(c2cc(C)c3cc(NC(=O)c4cc(OC)c(OC)c(OC)c4)ccc3n2)CC1
Cc1cc(/C=N/NC(N)=S)c(C)n1-c1cccc(Cl)c1

Ordered by molar mass (descending): three of the compounds above
Potency, inactive:
Cc1cccc(C(=O)Nc2ccc3nc(SCC(=O)N4CCc5ccccc54)sc3c2)c1
CCC(=O)C1=C(c2cccc([N+](=O)[O-])c2)N(C(=O)CC)n2c(nnc2C2CCCCC2)S1
CCOC(=O)c1sc2ncn(CC(=O)Nc3cc(C)cc(C)c3)c(=O)c2c1C

Following part.

Potency, active:
COc1ccc(S(=O)(=O)N2CCOCC2)cc1NC(=O)COC(=O)c1ccc([N+](=O)[O-])s1 89.1 µM
COc1ccc(Br)cc1/C=c1\sc2nc(-c3ccco3)nn2c1=O 8.91 µM

Potency, inconclusive:
Cn1nc(C(F)(F)F)c(-c2ccc(Br)cc2)c1NC(=O)CSCC(=O)O 100 µM [inhibitor, partial curve, poor fit]
COCCn1c(CN2CCN(C)CC2)nc2c1c(=O)n(C)c(=O)n2C 0.794 µM [inhibitor, partial curve, poor fit]
Cc1cccn2c(=O)c3cc(C(=O)NCc4ccccc4)c(=N)n(CCCN4CCOCC4)c3nc12 63.1 µM [inhibitor, partial curve, poor fit]
COCCCn1c(SCc2nnc(-c3ccccc3)o2)nc2sc3c(c2c1=O)CCC3 25.1 µM [inhibitor, full curve, poor fit]
C=C(c1nc2ccccc2s1)C1Cc2cccc3c2N(CCC3)C1 (configuration not stated) 56.2 µM [inhibitor, partial curve, poor fit]
C#CCCC(=O)c1ccccc1/C=[N+](\[O-])c1ccccc1 11.2 µM [inhibitor, partial curve, poor fit]
CCCCOC(=O)CCc1c(C)[nH]c(=O)c(C#N)c1C 1.26 µM [inhibitor, full curve, poor fit]
O=C(CC(n1cncn1)C(Cl)(Cl)Cl)c1ccc([N+](=O)[O-])cc1 (configuration not stated) 7.08 µM [inhibitor, partial curve]
CCC(=O)Nc1c(C#N)c2nc3ccccc3nc2n1-c1ccccc1C 28.2 µM [inhibitor, partial curve]
COc1ccc2c(c1)c(=O)oc1cc(OC(C(=O)O)c3ccccc3)ccc12 (configuration not stated) 14.1 µM [inhibitor, partial curve, poor fit]
N#C/C(=C(/O)Cc1cccc2ccccc12)c1nc2ccccc2s1 15.8 µM [inhibitor, partial curve]
Cc1ccc(S(=O)(=O)N2CCCCC2)cc1NC(=O)Cn1ncc(Cl)c(Cl)c1=O 50.1 µM [inhibitor, partial curve, poor fit]
COc1cc(C2C(C#N)=C(C)NC(C)=C2C#N)cc(OC)c1OC 39.8 µM [inhibitor, single point]
CC1=NN(Cc2ccccc2)C(=O)C1C(c1ccncc1)C(C#N)C#N (configuration not stated) 17.8 µM [inhibitor, single point]
COc1cc(SC)ccc1C(=O)NCC1CCCO1 (configuration not stated) 5.01 µM [inhibitor, partial curve]
N=C1S/C(=C\c2ccco2)C(=O)N1c1nccs1 50.1 µM [inhibitor, single point]
Cc1ccc(S(=O)(=O)N2CCN(c3nc(-n4cncn4)nc4ccccc34)CC2)cc1 35.5 µM [inhibitor, partial curve]
Cc1cc2nc(CSc3ccc(Cl)cc3)cc(=O)n2[nH]1 89.1 µM [inhibitor, partial curve, poor fit]
Cc1ccc(C(=O)NCC(=O)NCCc2ccc(S(N)(=O)=O)cc2)s1 89.1 µM [inhibitor, single point]
Oc1c(Br)cc(Br)cc1/C=N/c1nc2c(s1)CCCC2 14.1 µM [inhibitor, full curve, poor fit]
CC(C)NC(=O)c1onc(CSc2ccc(F)cc2)c1C(=O)NC(C)C 39.8 µM [inhibitor, single point]
N=c1c(S(=O)(=O)c2ccc(Cl)cc2)cc2c(=O)n3ccccc3nc2n1CC1CCCO1 (configuration not stated) 89.1 µM [inhibitor, partial curve, poor fit]
CN1C(=O)S/C(=C/c2cccn2-c2cccc(C(=O)O)c2)C1=O 79.4 µM [inhibitor, partial curve]
CC1(c2ccccc2)CC(c2ccccc2)=Nc2nonc2N1 (configuration not stated) 44.7 µM [inhibitor, partial curve, poor fit]
O=C(CSCc1ccc(Cl)cc1)Nc1cc([N+](=O)[O-])ccc1O 79.4 µM [inhibitor, partial curve, poor fit]
O=C(Nc1ccc2nc3n(c(=O)c2c1)CCCC3)c1cc([N+](=O)[O-])ccc1F 20 µM [inhibitor, single point]
O=C(Nc1ccc(F)cc1)c1ccc2ncsc2c1 22.4 µM [inhibitor, partial curve, poor fit]
